The values that follow are results of earlier work, collected in PMC9229919, “4-Aminoquinoline-Based Adamantanes as Potential Anticholinesterase Agents in Symptomatic Treatment of Alzheimer’s Disease” (Pharmaceutics, 2022).

The conditions of this series: standard compounds of the interpolation method; cited from earlier work.

`O=C1Nc2ccc(Cl)cc2C(c2ccccc2)=NC1O` (centres unmarked) [oksazepam]: the pKa1 is recorded as 10.9 and the pKa2 is reported as 1.55.
